The test has as its system CD2F1 mice, L1210 leukemia ip, survival T/C. In words: NCI In Vivo Anticancer Drug Screen. Data for tumor model L1210 Leukemia (intraperitoneal) in CD2F1 (CDF1) mice. Conditions: higher T/C = longer survival. In short, it runs like this:
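Read-out first: treated-group measurement over vehicle-control measurement, expressed as a ratio. Animals bore a transplanted tumor line and were dosed with compound or vehicle.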

Where [1] appears, read: T/C endpoint: mean survival time, dose: 100.0 mg/kg/injection, schedule: Q04DX003 (ip), vehicle: saline with Tween-80.
The mark [2] stands for this setting: T/C endpoint: mean survival time, dose: 200.0 mg/kg/injection, schedule: Q01DX001 (ip), vehicle: saline with Tween-80.
The mark [3] stands for this setting: T/C endpoint: mean survival time, dose: 200.0 mg/kg/injection, schedule: Q04DX003 (ip), vehicle: saline with Tween-80.
[4] abbreviates: T/C endpoint: mean survival time, dose: 400.0 mg/kg/injection, schedule: Q01DX001 (ip), vehicle: saline with Tween-80.
[5] abbreviates: T/C endpoint: mean survival time, dose: 400.0 mg/kg/injection, schedule: Q04DX003 (ip), vehicle: saline with Tween-80.
Where [6] appears, read: T/C endpoint: mean survival time, dose: 300.0 mg/kg/injection, schedule: Q01DX001 (ip), vehicle: saline.
The mark [7] stands for this setting: T/C endpoint: mean survival time, dose: 200.0 mg/kg/injection, schedule: Q01DX009 (ip), vehicle: saline with Tween-80.
The mark [8] stands for this setting: T/C endpoint: mean survival time, dose: 50.0 mg/kg/injection, schedule: Q01DX009 (ip), vehicle: saline with Tween-80.
The mark [9] stands for this setting: T/C endpoint: mean survival time, dose: 100.0 mg/kg/injection, schedule: Q01DX009 (ip), vehicle: saline with Tween-80.
Setting [10] is: T/C endpoint: mean survival time, dose: 100.0 mg/kg/injection, schedule: Q04DX002 (ip), vehicle: saline with Tween-80.
Where [11] appears, read: T/C endpoint: mean survival time, dose: 200.0 mg/kg/injection, schedule: Q04DX002 (ip), vehicle: saline with Tween-80.
Setting [12] is: T/C endpoint: mean survival time, dose: 400.0 mg/kg/injection, schedule: Q01DX009 (ip), vehicle: saline.
Setting [13] is: T/C endpoint: mean survival time, dose: 400.0 mg/kg/injection, schedule: Q01DX009 (ip), vehicle: saline with Tween-80.
Where [14] appears, read: T/C endpoint: mean survival time, dose: 400.0 mg/kg/injection, schedule: Q01DX001 (ip), vehicle: saline.

The list is a part of this screen's results and no random one: it is rich in T/C values a quarter to a half above the control, in often repeated tests (any T/C) and in doses without a T/C. Further doses and runs are listed elsewhere. T/C is the treated group as % of the vehicle group. Some doses have a count of surviving animals in place of a T/C: the source holds a T/C of zero for them, seemingly a mark for toxic or unscored doses. Some survivor counts are full or nearly so, which does not show that the dose was tolerated: the source hardly ever lists a survival T/C far under the control, and the zero likely stands for such cases as well. Survivors were counted at the toxicity check, usually on the fifth day, unless a day is given; later deaths do not show. Schedules are NCI's codes, read here as Q, the interval in days (D) or hours (H), X, the number of doses. Additions like (4×) say how often a value occurs here. Where survival is the endpoint, the PubChem record calls one and a half times the control and up active, and a quarter to a half above the control has no call in these data; cut-offs in other NCI protocols can differ. Some T/C values carry the count of animals alive at the toxicity check (mostly the fifth day); where none is given, no animal had died by that day. Some doses were run more than once; their values stand side by side, smallest first.

With `COc1cc2c(c(OC)c1OC)-c1ccc(OC)c(=O)cc1[C@@H](NC=O)CC2`, the survivor count by setting is: (T/C endpoint: mean survival time, dose: 6.25 mg/kg/injection, schedule: Q04DX003 (ip), vehicle: Klucel (hydroxypropylcellulose) (HPC)) 3 of 6; (T/C endpoint: mean survival time, dose: 12.5 mg/kg/injection, schedule: Q04DX003 (ip), vehicle: Klucel (hydroxypropylcellulose) (HPC)) 2 of 6; (T/C endpoint: mean survival time, dose: 25.0 mg/kg/injection, schedule: Q04DX003 (ip), vehicle: Klucel (hydroxypropylcellulose) (HPC)) 0 of 6.
Turning to `O=C1C=CC(=O)C2CC=CCC12` (centres undefined), the survivor count is given as 3 of 6 (T/C endpoint: mean survival time, dose: 100.0 mg/kg/injection, schedule: Q01DX001 (ip), vehicle: saline with Tween-80); 0 of 6 under setting [1]; 0 of 6 under setting [2]; 0 of 6 under setting [3]; 0 of 6 under setting [4]; 0 of 6 under setting [5].
Consider `CN(C)/C=N\c1ncnc2c1c(C#N)cn2C1OC(CO)C(O)C1O` (centres undefined), for which the survivor count reads like this: (T/C endpoint: mean survival time, dose: 50.0 mg/kg/injection, schedule: Q01DX009 (ip), vehicle: saline) 6 of 6; (T/C endpoint: mean survival time, dose: 100.0 mg/kg/injection, schedule: Q01DX009 (ip), vehicle: saline) 2 of 6; (T/C endpoint: mean survival time, dose: 200.0 mg/kg/injection, schedule: Q01DX009 (ip), vehicle: saline) 0 of 6.
As for `[NH-]C(CCC(N)=O)C(=O)O.[NH-]C(CCC(N)=O)C(=O)O.[Zn+2]` (centres undefined), the survivor count (T/C endpoint: median survival time, dose: 100.0 mg/kg/injection, schedule: Q01DX009 (ip), vehicle: saline with Tween-80) is reported as 0 of 6.
Consider `O=S1CCCCO1` (centres undefined), for which the survivor count (T/C endpoint: mean survival time, dose: 300.0 mg/kg/injection, schedule: Q04DX003 (ip), vehicle: saline) was 1 of 6.
As to `CCCCCCCC/C=C\CCCCCCCC(=O)NCCN(CC)CC`, under setting [6], the survivor count was 2 of 6.
Consider `COc1cc(CC2c3cc(OC)c(OC)cc3CCN2C)c(Oc2cc3c(cc2OC)-c2c(OC)c(OC)c(OC)c4c2C(C3)N(C)CC4)cc1OC` (centres undefined), for which the survivor count under setting [7] is on record as 3 of 6.
As to `CN(C)N=Nc1cccc(Cl)c1`, the survivor count (T/C endpoint: mean survival time, dose: 400.0 mg/kg/injection, schedule: Q01DX009 (ip), vehicle: Klucel (hydroxypropylcellulose) (HPC)) is given as 0 of 6.
For `CCn1c(=S)[nH]c(=O)c2n[nH]nc21`, for the setting “T/C endpoint: mean survival time, dose: 400.0 mg/kg/injection, schedule: Q01DX009 (ip), vehicle: acetone”, the survivor count is on record as 3 of 6.
Take `C=C(C)CC1(CC)C(=O)NC(=S)NC1=O`: under setting [7], the survivor count was 1 of 6.
`OC1CC2CC1C1C3C=CC(C3)C21` (centres undefined): the survivor count is on record as 2 of 3 under setting [8], 0 of 3 under setting [9] and 0 of 3 under setting [7].
Regarding `Cc1ccc[n+](CC(O)c2ccc(C(O)C[n+]3cccc(C)c3)cc2)c1` (centres undefined), the survivor count (T/C endpoint: mean survival time, dose: 0.3 mg/kg/injection, schedule: Q04DX003 (ip), vehicle: saline) is given as 3 of 6.
As to `COC1=CC(=O)c2ccccc2C1=O`, the survivor count under setting [5] was 0 of 3.
With `[B-][N+](C)(C)Cc1ccccc1`, the survivor count under setting [9] is on record as 4 of 6, the survivor count under setting [2] is given as 1 of 6 and the survivor count under setting [4] is given as 0 of 6.
For `CN(C)C(=O)N/C=C/NC(=O)N(C)C`, the survivor count is given as 1 of 3 under setting [10]; 0 of 3 under setting [11]; 0 of 3 (T/C endpoint: mean survival time, dose: 400.0 mg/kg/injection, schedule: Q04DX002 (ip), vehicle: saline with Tween-80).
For `C/C=C/CC(C/C=C/C)C1CC[N-]CC1.C/C=C/CC(C/C=C/C)C1CC[N-]CC1.[Cl][Pt+2]([Cl])([Cl])[Cl]`, the survivor count is listed as 6 of 6 (T/C endpoint: mean survival time, dose: 25.0 mg/kg/injection, schedule: Q01DX009 (ip), vehicle: other); 6 of 6 (T/C endpoint: mean survival time, dose: 50.0 mg/kg/injection, schedule: Q01DX009 (ip), vehicle: other); 3 of 6 (T/C endpoint: mean survival time, dose: 200.0 mg/kg/injection, schedule: Q01DX009 (ip), vehicle: other).
Regarding `CN(C)CCCNCCCCNCCCN(C)C`, the survivor count under setting [12] is given as 5 of 6.
On to `NOc1ccc([N+](=O)[O-])cc1[N+](=O)[O-]`, for which the survivor count reads like this: under setting [8], 2 of 6; under setting [9], 0 of 6.
In the case of `CC(NC(=O)C(C)(Br)C1CCCCC1)c1ccccc1` (centres undefined), the survivor count under setting [4] was 3 of 3.
As for `CCN1CCC(C(C)(C)C)CC1`, the survivor count by setting is: (T/C endpoint: mean survival time, dose: 200.0 mg/kg/injection, schedule: Q01DX001 (ip), vehicle: acetone) 0 of 6; (T/C endpoint: mean survival time, dose: 400.0 mg/kg/injection, schedule: Q01DX001 (ip), vehicle: acetone) 0 of 6.
Consider `COC1CCCC[CH]1[Hg][Br]` (centres undefined), for which the survivor count is 1 of 3 (T/C endpoint: mean survival time, dose: 6.25 mg/kg/injection, schedule: Q01DX009 (ip), vehicle: saline with Tween-80) and 1 of 3 (T/C endpoint: mean survival time, dose: 12.5 mg/kg/injection, schedule: Q01DX009 (ip), vehicle: saline with Tween-80).
Take `CC1=CCC(C(C)(C)c2ccc(O)cc2)CC1` (centres undefined): under setting [13], the survivor count is 3 of 6.
`COc1ccc2c(c1)n([O-])c1ccccc1[n+]2=O`: the T/C (T/C endpoint: median survival time, dose: 100.0 mg/kg/injection, schedule: Q01DX005 (ip), vehicle: saline with Tween-80) was 129 and 135 % of control [5 of 6 alive]. Moreover, the survivor count (T/C endpoint: median survival time, dose: 167.0 mg/kg/injection, schedule: Q01DX005 (ip), vehicle: saline with Tween-80) is listed as 0 of 5; the survivor count (T/C endpoint: median survival time, dose: 200.0 mg/kg/injection, schedule: Q01DX005 (ip), vehicle: saline with Tween-80) is given as 0 of 6; the survivor count (T/C endpoint: median survival time, dose: 277.78 mg/kg/injection, schedule: Q01DX005 (ip), vehicle: saline with Tween-80) is given as 0 of 6; the survivor count (T/C endpoint: median survival time, dose: 278.0 mg/kg/injection, schedule: Q01DX005 (ip), vehicle: saline with Tween-80) was 0 of 5.
Regarding `CNCc1ccc2c(c1)OCO2`, under setting [6], the survivor count was 1 of 6.
In the case of `O=[N+]([O-])c1ccc(S(=O)(=O)C/C=C/CCl)c([N+](=O)[O-])c1`, the survivor count was 3 of 6 under setting [9], 2 of 6 under setting [2] and 1 of 6 under setting [4].
With `[Cl][Pt+2][Cl].[NH-]C1CC1.[NH2-]`, the T/C is 132 and 147 % of control (T/C endpoint: mean survival time, dose: 3.12 mg/kg/injection, schedule: Q04DX003 (ip), vehicle: saline); 148 % of control (T/C endpoint: mean survival time, dose: 6.25 mg/kg/injection, schedule: Q04DX003 (ip), vehicle: saline). The survivor count is given as 3 of 6 (T/C endpoint: mean survival time, dose: 6.25 mg/kg/injection, schedule: Q04DX003 (ip), vehicle: saline with Tween-80); 4 of 6 (T/C endpoint: mean survival time, dose: 12.5 mg/kg/injection, schedule: Q04DX003 (ip), vehicle: saline with Tween-80); 2 of 6 (T/C endpoint: mean survival time, dose: 25.0 mg/kg/injection, schedule: Q04DX003 (ip), vehicle: saline with Tween-80); 2 of 6 (T/C endpoint: mean survival time, dose: 50.0 mg/kg/injection, schedule: Q04DX003 (ip), vehicle: saline with Tween-80); 1 of 6 under setting [1]; 1 of 6 under setting [3].
On to `CCSC(=O)CC`, for which, under setting [13], the survivor count is on record as 3 of 6.
For the compound `CCCCNCCO`, the survivor count was 2 of 4 (T/C endpoint: mean survival time, dose: 200.0 mg/kg/injection, schedule: Q01DX001 (ip), vehicle: saline) and 0 of 4 under setting [14].
As for `c1ccc(CN2CCOC2)cc1`, the survivor count under setting [12] was 0 of 6 (2×).
Regarding `Nc1cccc2c1C(=O)C=CC2=O`, the survivor count was 0 of 6 under setting [1], 0 of 6 under setting [3] and 0 of 6 under setting [5].
Take `CC1(C)CCC2(C(=O)O)CCC3(C)C(=CCC4C5(C)CC(O)C(OC6OC(CO)C(O)C(O)C6O)C(C)(CO)C5C(O)CC43C)C2C1` (centres undefined): the survivor count is listed as 1 of 3 under setting [10] and 0 of 3 under setting [11].
On to `CCN(CC)CCCNc1ncnc(Cl)c1C(=C(C)C)c1ccccc1`, for which the survivor count under setting [14] was 0 of 6.

For the origin of these results see PubChem BioAssay AID256 (DTP/NCI, 2004).
